# Measured values: patent US20240174692A1, “PYRIMIDINE AROMATIC RING COMPOUNDS” (Medshine Discovery Inc., priority 2021, published 2024)
# For at least one compound, name, drawing or mass did not settle the structure.
# Test system: human colon cancer GP2D xenograft tumor
# Experiment: In vivo pharmacodynamic study, GP2D xenograft tumor model in Balb/c nude mouse
# Conditions: PO, 22 days of administration
# Experimental: An xenograft tumor model in GP2D Balb/c nude mouse:
# Assay method: A Balb/c nude mouse model of subcutaneously xenograft tumor of human colon cancer GP2D cells was established. 0.2 mL (2×10^6) of GP2D cells (Matrigel was added, and volume ratio was 1:1) were inoculated subcutaneously on the right back of each mouse. When the average tumor volume reached 149 mm^3, the administration was started by group, with 6 mice in each group. On the day of the assay, the animals were administered the corresponding drugs according to the corresponding groups. The first group G1 was set as a negative control group, which was given 5% DMSO+95%(10% HP-β-CD) alone by gavage administration. The second group G2 to the fifth group G5 were given compound 014, and the dosage and protocol of administration were shown in Table 19.
# During the assay, the body weight of animals and the tumor size were measured twice a week. Meanwhile, clinical symptoms of animals were observed and recorded every day. Each administration was referenced to the most recent body weight of animals.
# The length (a) and width (b) of a tumor were measured with a digital vernier caliper. The calculation formula of tumor volume (TV) was: TV=a×b^2/2.
compound,measurement,value
C#Cc1c(F)ccc2cc(N)cc(-c3ccc4c(N5CC6CCC(C5)N6)nc(OC[C@@]56CCCN5C[C@H](F)C6)nc4c3F)c12 [Compound 014],Effect on xenograft tumors of human colon cancer GP2D in mouse,significant inhibitory effect
